The other results are listed elsewhere or left out.
Assays:
Test in all cases: log2 fold change, soluble protein after heating vs DMSO (PISA); higher = thermal stabilisation; K562 lysate, 10 uM; active = over 0.2 and 3.5 SD of the protein, either way, in both replicates (recomputed)
erlotinib = compound: C#Cc1cccc(Nc2ncnc3cc(OCCOC)c(OCCOC)cc23)c1 [erlotinib]
Method in brief: (§1)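 Dounce homogenisation of K562 pellets in PBS pH 7.4 with 1 mM MgCl2 produced a crude extract, used at 1 mg/mL protein. Exposure to 10 μM compound lasted 30 min, and aliquots were then heated for 3 min across 48°C-58°C, pooled and brought to 0.5% NP-40 at 4°C. The supernatant after 21,000xg for 90 min was quantified by TMTpro 16plex LC-MS/MS with channel sums equalised. Duplicate values are given as log-two fold change in thermal stability relative to solvent controls.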

Protein sequences, listed by entry. Tags and fused reporters are not part of them. Lines headed by an entry give the natural chain unless they say otherwise; changes in a name come on top.
UniProt Q8IYB8: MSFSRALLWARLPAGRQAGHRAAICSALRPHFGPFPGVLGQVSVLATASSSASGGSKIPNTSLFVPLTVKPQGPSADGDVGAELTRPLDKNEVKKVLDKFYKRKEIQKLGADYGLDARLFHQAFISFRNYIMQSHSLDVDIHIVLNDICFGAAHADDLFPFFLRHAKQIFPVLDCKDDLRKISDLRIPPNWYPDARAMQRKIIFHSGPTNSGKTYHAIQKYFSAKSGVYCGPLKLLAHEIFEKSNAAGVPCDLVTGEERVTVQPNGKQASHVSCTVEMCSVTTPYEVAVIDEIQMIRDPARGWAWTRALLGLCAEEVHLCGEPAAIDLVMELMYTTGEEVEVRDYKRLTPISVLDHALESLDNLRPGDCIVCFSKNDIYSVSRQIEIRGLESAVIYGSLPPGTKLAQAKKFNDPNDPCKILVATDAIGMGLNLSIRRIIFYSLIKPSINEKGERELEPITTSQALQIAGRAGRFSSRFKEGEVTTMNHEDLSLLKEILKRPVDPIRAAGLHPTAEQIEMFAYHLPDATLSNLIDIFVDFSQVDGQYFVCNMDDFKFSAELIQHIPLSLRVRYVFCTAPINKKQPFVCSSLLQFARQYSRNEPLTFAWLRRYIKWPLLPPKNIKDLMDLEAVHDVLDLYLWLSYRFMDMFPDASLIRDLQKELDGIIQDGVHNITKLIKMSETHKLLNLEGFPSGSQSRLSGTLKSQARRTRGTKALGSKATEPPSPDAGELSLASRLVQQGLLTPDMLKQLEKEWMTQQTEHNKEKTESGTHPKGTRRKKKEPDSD
UniProt Q92750: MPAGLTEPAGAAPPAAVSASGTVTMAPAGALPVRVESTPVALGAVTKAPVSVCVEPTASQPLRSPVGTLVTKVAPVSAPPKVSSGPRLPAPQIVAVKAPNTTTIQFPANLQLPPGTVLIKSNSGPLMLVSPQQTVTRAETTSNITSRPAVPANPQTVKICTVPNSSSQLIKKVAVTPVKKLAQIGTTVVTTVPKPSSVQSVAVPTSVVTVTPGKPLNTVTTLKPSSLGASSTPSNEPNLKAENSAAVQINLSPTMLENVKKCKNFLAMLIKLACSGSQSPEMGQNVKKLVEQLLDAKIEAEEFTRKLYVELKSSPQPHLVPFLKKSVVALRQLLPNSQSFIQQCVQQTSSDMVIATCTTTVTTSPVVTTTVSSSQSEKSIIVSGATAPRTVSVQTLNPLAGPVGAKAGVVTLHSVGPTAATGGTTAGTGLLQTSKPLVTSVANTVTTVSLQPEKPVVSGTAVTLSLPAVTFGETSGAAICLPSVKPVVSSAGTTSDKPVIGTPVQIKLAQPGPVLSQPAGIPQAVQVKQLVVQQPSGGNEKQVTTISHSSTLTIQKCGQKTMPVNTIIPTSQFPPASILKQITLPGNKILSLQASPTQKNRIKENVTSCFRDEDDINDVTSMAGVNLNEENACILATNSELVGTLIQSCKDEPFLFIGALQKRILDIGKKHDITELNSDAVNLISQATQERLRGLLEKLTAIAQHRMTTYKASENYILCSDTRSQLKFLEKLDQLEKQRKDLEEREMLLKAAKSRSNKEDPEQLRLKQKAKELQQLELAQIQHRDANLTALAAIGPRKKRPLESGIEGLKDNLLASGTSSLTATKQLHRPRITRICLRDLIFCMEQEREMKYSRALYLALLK
UniProt Q16514: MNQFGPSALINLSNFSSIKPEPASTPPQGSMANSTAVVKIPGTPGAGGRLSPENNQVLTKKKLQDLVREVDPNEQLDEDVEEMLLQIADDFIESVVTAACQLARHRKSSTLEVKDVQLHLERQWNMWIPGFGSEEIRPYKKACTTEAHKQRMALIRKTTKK
UniProt Q12846: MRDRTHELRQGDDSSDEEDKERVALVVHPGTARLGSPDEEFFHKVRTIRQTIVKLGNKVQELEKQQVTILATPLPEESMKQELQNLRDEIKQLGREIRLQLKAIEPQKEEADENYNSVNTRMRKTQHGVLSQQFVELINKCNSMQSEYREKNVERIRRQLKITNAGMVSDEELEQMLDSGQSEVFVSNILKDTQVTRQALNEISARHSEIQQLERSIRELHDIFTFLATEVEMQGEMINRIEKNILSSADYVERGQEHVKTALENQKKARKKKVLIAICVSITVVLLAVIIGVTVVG
UniProt O00186: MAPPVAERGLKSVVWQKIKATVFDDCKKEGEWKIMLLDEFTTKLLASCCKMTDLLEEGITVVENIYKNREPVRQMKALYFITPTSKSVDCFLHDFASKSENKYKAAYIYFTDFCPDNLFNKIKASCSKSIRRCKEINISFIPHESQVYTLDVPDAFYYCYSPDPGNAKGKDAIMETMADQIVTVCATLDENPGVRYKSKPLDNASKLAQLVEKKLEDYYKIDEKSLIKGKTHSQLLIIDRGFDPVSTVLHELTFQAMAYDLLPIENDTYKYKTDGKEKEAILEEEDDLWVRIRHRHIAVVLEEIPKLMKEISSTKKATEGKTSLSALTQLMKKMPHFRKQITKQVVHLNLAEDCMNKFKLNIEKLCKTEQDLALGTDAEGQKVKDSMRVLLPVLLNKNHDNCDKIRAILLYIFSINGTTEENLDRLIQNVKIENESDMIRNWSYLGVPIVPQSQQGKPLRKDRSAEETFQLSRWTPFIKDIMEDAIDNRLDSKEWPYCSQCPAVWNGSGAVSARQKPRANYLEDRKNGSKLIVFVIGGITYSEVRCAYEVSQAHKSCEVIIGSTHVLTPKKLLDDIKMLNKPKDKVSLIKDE
UniProt Q13033: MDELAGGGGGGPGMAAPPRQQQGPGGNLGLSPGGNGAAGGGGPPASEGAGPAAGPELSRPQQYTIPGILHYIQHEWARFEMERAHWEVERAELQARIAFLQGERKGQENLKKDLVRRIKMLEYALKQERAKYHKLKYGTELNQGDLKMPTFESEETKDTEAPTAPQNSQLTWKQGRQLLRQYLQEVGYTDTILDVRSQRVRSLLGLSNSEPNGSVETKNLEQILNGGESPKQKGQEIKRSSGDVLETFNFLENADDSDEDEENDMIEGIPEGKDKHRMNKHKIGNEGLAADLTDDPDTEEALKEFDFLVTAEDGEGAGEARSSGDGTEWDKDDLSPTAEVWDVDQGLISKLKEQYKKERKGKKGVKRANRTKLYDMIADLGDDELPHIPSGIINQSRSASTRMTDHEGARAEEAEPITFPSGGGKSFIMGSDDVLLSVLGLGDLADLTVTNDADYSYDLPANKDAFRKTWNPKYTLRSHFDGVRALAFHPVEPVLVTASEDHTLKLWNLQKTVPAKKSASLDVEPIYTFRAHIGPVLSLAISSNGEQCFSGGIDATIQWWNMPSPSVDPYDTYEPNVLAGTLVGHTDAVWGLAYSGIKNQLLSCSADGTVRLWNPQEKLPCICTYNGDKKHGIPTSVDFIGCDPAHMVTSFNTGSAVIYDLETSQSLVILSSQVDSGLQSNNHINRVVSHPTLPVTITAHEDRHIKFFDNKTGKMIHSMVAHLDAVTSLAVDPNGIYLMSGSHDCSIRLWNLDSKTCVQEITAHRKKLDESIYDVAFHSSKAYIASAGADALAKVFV
UniProt Q9UH65: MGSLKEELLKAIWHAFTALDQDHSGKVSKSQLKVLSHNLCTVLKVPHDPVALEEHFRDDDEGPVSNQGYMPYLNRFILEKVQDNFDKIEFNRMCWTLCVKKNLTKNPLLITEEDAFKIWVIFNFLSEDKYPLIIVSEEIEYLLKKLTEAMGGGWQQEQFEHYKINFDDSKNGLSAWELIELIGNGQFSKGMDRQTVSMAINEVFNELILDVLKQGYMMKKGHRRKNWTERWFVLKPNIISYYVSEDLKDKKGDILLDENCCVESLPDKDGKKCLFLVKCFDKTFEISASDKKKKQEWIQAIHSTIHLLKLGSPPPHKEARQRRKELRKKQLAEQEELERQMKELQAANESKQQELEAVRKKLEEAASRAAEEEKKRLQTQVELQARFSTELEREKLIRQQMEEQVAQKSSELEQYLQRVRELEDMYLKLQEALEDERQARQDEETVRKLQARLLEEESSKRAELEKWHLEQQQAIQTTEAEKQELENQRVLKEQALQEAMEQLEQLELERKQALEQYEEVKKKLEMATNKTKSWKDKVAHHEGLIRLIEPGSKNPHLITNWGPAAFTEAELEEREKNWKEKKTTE
UniProt Q9P2W9: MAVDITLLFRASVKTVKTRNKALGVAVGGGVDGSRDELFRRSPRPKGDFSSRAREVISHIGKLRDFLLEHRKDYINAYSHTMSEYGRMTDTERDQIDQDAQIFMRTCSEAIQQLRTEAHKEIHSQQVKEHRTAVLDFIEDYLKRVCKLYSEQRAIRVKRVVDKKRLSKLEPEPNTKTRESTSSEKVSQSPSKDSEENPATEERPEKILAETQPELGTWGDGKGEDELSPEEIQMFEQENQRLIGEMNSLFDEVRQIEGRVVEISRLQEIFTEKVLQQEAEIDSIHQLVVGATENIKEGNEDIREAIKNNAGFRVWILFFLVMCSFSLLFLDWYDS
UniProt Q5VSL9: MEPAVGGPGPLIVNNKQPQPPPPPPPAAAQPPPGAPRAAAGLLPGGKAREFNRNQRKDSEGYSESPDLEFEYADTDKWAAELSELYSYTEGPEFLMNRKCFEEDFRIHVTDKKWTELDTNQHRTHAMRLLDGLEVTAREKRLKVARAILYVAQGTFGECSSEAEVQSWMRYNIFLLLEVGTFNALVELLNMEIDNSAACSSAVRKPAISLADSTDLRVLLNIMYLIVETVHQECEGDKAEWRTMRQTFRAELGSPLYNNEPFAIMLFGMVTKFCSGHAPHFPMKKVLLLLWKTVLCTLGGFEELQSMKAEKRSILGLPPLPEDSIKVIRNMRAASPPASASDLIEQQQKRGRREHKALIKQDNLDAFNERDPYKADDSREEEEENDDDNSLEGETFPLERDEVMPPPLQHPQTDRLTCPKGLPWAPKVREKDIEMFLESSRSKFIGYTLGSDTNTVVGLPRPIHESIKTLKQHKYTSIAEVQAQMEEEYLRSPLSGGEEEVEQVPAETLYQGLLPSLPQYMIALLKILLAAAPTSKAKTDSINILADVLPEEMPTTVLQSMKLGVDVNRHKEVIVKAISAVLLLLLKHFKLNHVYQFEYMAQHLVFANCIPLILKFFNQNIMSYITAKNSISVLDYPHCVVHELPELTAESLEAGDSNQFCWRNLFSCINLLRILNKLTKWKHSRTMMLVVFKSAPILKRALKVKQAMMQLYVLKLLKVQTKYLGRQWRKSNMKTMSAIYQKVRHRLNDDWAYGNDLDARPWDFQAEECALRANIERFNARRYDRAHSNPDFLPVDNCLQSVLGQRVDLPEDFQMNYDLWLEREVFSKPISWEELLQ
UniProt Q9H668: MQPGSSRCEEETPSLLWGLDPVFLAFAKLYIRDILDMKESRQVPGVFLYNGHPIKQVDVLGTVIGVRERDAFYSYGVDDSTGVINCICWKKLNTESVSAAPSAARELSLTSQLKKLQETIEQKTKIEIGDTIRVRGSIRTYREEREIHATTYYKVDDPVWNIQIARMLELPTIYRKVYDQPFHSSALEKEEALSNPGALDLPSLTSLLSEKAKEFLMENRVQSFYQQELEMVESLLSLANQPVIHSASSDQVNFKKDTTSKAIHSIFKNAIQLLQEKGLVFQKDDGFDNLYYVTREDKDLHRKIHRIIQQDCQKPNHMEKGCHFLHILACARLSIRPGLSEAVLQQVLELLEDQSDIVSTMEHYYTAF
UniProt Q9H169: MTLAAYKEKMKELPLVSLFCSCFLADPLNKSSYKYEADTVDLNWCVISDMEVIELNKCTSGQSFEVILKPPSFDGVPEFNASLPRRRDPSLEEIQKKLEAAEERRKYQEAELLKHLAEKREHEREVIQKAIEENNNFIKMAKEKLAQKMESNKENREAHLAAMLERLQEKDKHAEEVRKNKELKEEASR
UniProt O60506: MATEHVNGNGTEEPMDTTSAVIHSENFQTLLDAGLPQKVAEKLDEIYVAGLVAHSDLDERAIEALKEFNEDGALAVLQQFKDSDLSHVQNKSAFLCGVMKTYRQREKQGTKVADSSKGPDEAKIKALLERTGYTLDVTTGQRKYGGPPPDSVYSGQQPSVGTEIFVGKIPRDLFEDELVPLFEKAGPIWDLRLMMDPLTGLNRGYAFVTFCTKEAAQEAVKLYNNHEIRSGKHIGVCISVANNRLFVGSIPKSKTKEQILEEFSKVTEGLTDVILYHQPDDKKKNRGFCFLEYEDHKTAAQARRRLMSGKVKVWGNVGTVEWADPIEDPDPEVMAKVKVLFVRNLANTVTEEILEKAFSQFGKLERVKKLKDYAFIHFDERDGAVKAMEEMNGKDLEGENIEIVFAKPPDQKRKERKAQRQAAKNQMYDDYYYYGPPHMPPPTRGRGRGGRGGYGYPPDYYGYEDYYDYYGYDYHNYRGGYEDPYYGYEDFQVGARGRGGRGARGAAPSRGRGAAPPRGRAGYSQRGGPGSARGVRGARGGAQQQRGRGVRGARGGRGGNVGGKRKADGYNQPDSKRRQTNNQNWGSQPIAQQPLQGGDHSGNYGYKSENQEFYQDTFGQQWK

[1] = compound: C1=CC(=CC=C1C2=NC3=C(N2)C=C(C=C3)C(=O)N)OC4=CC=C(C=C4)Cl
Method in brief: as §1

[2] = compound: C1=CC2=NC=CN=C2C=C1/C=C/3\C(=O)NC(=O)S3
Method in brief: as §1

[3] = compound: C1=CC=C(C=C1)C2=NC(=C(N2)C3=CC=NC=C3)C4=CC(=C(C=C4)Cl)O
Method in brief: as §1

[4] = compound: C1CCN(C1)C(=O)NC2=CC=CC(=C2)NC3=NC=C(C(=N3)NCCC4=CN=CN4)Br
Method in brief: as §1

[5] = compound: C1CN(CCC1(CC2=CC=C(C=C2)Cl)N)C3=NC=NC4=C3C=CN4
Method in brief: as §1

IRAK-1-4 Inhibitor I = compound: C1COCCN1CCN2C3=CC=CC=C3N=C2NC(=O)C4=CC(=CC=C4)[N+](=O)[O-] [IRAK-1-4 Inhibitor I]
Method in brief: as §1

ibrutinib = compound: C=CC(=O)N1CCC[C@@H](n2nc(-c3ccc(Oc4ccccc4)cc3)c3c(N)ncnc32)C1 [ibrutinib]
Method in brief: as §1

[6] = compound: CC(=O)c1cnc2ccc(-c3cc(Cl)c(O)c(Cl)c3)nc2c1N[C@H]1CC[C@H](CN(C)C)CC1
Method in brief: as §1

ralimetinib = compound: CC(C)(C)Cn1c(N)nc2ccc(-c3[nH]c(C(C)(C)C)nc3-c3ccc(F)cc3)nc21 [ralimetinib]
Method in brief: as §1

[7] = compound: CC(C)(O)CC(=O)NCCn1ccc2ncnc(Nc3ccc(Oc4cccc(C(F)(F)F)c4)c(Cl)c3)c21
Method in brief: as §1

[8] = compound: CC(C)C1=C2N=C(C=C(N2N=C1)NCC3=CC=CC=C3)NCCCCCCN
Method in brief: as §1

[9] = compound: CC1=C(C(CC(=O)N1)C2=CC=C(C=C2)C(F)(F)F)C(=O)NC3=C(C=C4C(=C3)C=NN4)F
Method in brief: as §1

[10] = compound: CC1=C(C2=C(C=C1)C(=O)C3=CC=CC=C3N2CCCN)C
Method in brief: as §1

[11] = compound: CC1=C(C=C(C=C1)NC(=O)C2=CC(=CC=C2)C(C)(C)C#N)NC3=CC4=C(C=C3)N=CN(C4=O)C
Method in brief: as §1

[12] = compound: CC1=C(C=C(C=C1)NC(=O)C2=CC(=CC=C2)N(C)C)NC(=O)C3=CC=C(C=C3)O
Method in brief: as §1

[13] = compound: CC1=CC=C(C=C1)SC2=C3C=C(SC3=CN=C2)C(=O)N
Method in brief: as §1

[14] = compound: C/C(=N\NC(=O)C1=CC(=CC=C1)S(=O)(=O)N2CCOCC2)/C3=C(C=CC(=C3)Cl)O
Method in brief: as §1

[15] = compound: C1=CC2=C(C=CC(=C2)/C=C\3/C(=O)NC(=NCC4=CC=CS4)S3)N=C1
Method in brief: as §1

[16] = compound: C1=CC=C2C(=C1)C3=NNC4=CC=CC(=C43)C2=O
Method in brief: as §1

Measured: log2 fold change

TAB3 (UniProt Q8N5C8)
inactive: erlotinib 0.009 | [1] 0.046 | [2] -0.035 | [3] -0.014 | [4] -0.042 | [5] -0.022 | IRAK-1-4 Inhibitor I 0.116 | ibrutinib -0.154 | [6] 0.175 | ralimetinib 0.032 | [7] -0.205 | [8] -0.008 | [9] 0.103 | [10] -0.026 | [11] -0.014 | [12] 0.094 | [13] -0.066

SUPV3L1 (UniProt Q8IYB8)
inactive: erlotinib -0.007 | [14] 0.036 | [1] 0.002 | [15] -0.009 | [2] 0.01 | [3] -0.028 | [16] -0.025 | [4] -0.006 | [5] 0.028 | IRAK-1-4 Inhibitor I -0.014 | ibrutinib 0.014 | [6] -0.02 | ralimetinib 0.008 | [7] -0.003 | [8] -0.001 | [9] -0.004 | [10] 0.013 | [11] 0.021 | [12] -0.025 | [13] -0.002

TAF4B (UniProt Q92750)
inactive: erlotinib 0.048 | [14] -0.159 | [1] -0.076 | [15] -0.082 | [2] -0.039 | [3] -0.14 | [16] 0.152 | [4] 0.067 | [5] 0.17 | IRAK-1-4 Inhibitor I 0.244 | ibrutinib 0.054 | [6] 0.028 | ralimetinib 0.291 | [7] -0.133 | [8] -0.042 | [9] -0.063 | [10] -0.004 | [11] 0.018 | [12] -0.184 | [13] 0.163

STK16 (UniProt O75716)
inactive: erlotinib -0.023 | [14] -0.108 | [1] 0.035 | [15] -0.3 | [3] -0.005 | [16] 0.351 | [4] 0.207 | [5] 0.01 | IRAK-1-4 Inhibitor I -0.036 | [6] 0.567 | ralimetinib 0.091 | [7] 0.089 | [8] -0.053 | [10] -0.004 | [11] -0.146 | [12] 0.065 | [13] -0.026

TAF12 (UniProt Q16514)
inactive: erlotinib -0.07 | [14] 0.001 | [1] 0.019 | [15] -0.005 | [2] -0.063 | [3] 0.011 | [16] 0.006 | [4] -0.109 | [5] -0.026 | IRAK-1-4 Inhibitor I -0.001 | ibrutinib 0.083 | [6] -0.042 | ralimetinib 0.006 | [7] -0.078 | [8] -0.035 | [9] -0.079 | [10] 0.024 | [11] 0.01 | [12] -0.018 | [13] -0.002

STX4 (UniProt Q12846)
inactive: erlotinib -0.01 | [14] 0.032 | [1] 0.039 | [15] 0.04 | [2] 0.012 | [3] -0.046 | [16] -0.039 | [4] 0.022 | [5] -0.002 | IRAK-1-4 Inhibitor I -0.002 | ibrutinib -0.015 | [6] 0.013 | ralimetinib 0.039 | [7] 0.027 | [8] -0.024 | [9] 0.042 | [10] -0.012 | [11] -0.008 | [12] -0.005 | [13] 0

STXBP3 (UniProt O00186)
inactive: erlotinib 0.015 | [14] -0.026 | [1] -0.027 | [15] -0.003 | [2] 0.012 | [3] -0.003 | [16] 0.001 | [4] -0.01 | [5] -0.008 | IRAK-1-4 Inhibitor I -0.01 | ibrutinib 0.021 | [6] 0.02 | ralimetinib -0.01 | [7] 0.011 | [8] -0.013 | [9] 0.001 | [10] 0.016 | [11] -0.042 | [12] -0.018 | [13] -0.007

Quoted from the listing (2 entries):
STX4 (UniProt Q12846)
inactive: erlotinib -0.01 | [14] 0.032 | [1] 0.039 | [15] 0.04 | [2] 0.012 | [3] -0.046 | [16] -0.039 | [4] 0.022 | [5] -0.002 | IRAK-1-4 Inhibitor I -0.002 | ibrutinib -0.015 | [6] 0.013 | ralimetinib 0.039 | [7] 0.027 | [8] -0.024 | [9] 0.042 | [10] -0.012 | [11] -0.008 | [12] -0.005 | [13] 0

STXBP3 (UniProt O00186)
inactive: erlotinib 0.015 | [14] -0.026 | [1] -0.027 | [15] -0.003 | [2] 0.012 | [3] -0.003 | [16] 0.001 | [4] -0.01 | [5] -0.008 | IRAK-1-4 Inhibitor I -0.01 | ibrutinib 0.021 | [6] 0.02 | ralimetinib -0.01 | [7] 0.011 | [8] -0.013 | [9] 0.001 | [10] 0.016 | [11] -0.042 | [12] -0.018 | [13] -0.007

More entries

STK26 (UniProt Q9P289)
inactive: erlotinib 0.008 | [14] -0.007 | [1] -0.005 | [15] -0.009 | [2] 0.002 | [3] -0.002 | [16] 0.06 | [4] 0.03 | [5] -0.011 | IRAK-1-4 Inhibitor I -0.018 | ibrutinib -0.043 | [6] 0.113 | ralimetinib -0.018 | [7] 0.004 | [8] -0.015 | [9] -0.021 | [10] 0.006 | [11] -0.028 | [12] 0.035 | [13] -0.025

STRN3 (UniProt Q13033)
inactive: erlotinib -0.032 | [14] 0.018 | [1] 0.031 | [15] 0.011 | [2] 0.003 | [3] 0.004 | [16] 0.017 | [4] 0.02 | [5] -0.038 | IRAK-1-4 Inhibitor I 0.012 | ibrutinib 0.03 | [6] 0.019 | ralimetinib -0.015 | [7] 0.012 | [8] -0.007 | [9] 0.071 | [10] -0.024 | [11] -0.005 | [12] 0.029 | [13] 0.033

SWAP70 (UniProt Q9UH65)
inactive: erlotinib -0.039 | [14] 0.005 | [1] 0.011 | [15] 0.109 | [2] 0.005 | [3] 0.015 | [16] -0.015 | [4] 0.007 | [5] -0.035 | IRAK-1-4 Inhibitor I 0.017 | ibrutinib 0.008 | [6] -0.013 | ralimetinib 0.003 | [7] -0.021 | [8] -0.013 | [9] -0.041 | [10] 0.011 | [11] -0.014 | [12] -0.006 | [13] -0.009

STX18 (UniProt Q9P2W9)
inactive: erlotinib 0.178 | [14] 0.022 | [1] 0.112 | [15] 0.026 | [2] -0.002 | [3] -0.103 | [16] -0.008 | [4] 0.077 | [5] -0.052 | IRAK-1-4 Inhibitor I -0.233 | ibrutinib 0.014 | [6] 0.055 | ralimetinib 0.061 | [7] -0.128 | [8] 0.15 | [9] -0.14 | [10] -0.006 | [11] -0.055 | [12] 0.118 | [13] 0.043

STRIP1 (UniProt Q5VSL9)
inactive: erlotinib -0.012 | [14] 0.012 | [1] -0.037 | [15] 0.004 | [2] -0.008 | [3] -0.01 | [16] 0.034 | [4] -0.034 | [5] 0.037 | IRAK-1-4 Inhibitor I -0.016 | ibrutinib -0.013 | [6] 0.011 | ralimetinib 0.035 | [7] -0.022 | [8] -0.038 | [9] 0.021 | [10] -0.028 | [11] 0.007 | [12] 0.002 | [13] -0.014

STN1 (UniProt Q9H668)
inactive: erlotinib -0.126 | [14] 0.049 | [1] 0.142 | [15] 0.075 | [2] -0.098 | [3] 0.019 | [16] -0.061 | [4] -0.045 | [5] 0.043 | IRAK-1-4 Inhibitor I 0.034 | ibrutinib 0.133 | [6] -0.187 | ralimetinib 0.151 | [7] -0.071 | [8] -0.056 | [9] 0.106 | [11] -0.016 | [12] 0.051 | [13] 0.035

SYK (UniProt P43405)
inactive: erlotinib -0.004 | [14] -0.007 | [1] 0.017 | [15] 0.039 | [2] -0.033 | [3] 0.021 | [4] -0.013 | [5] -0.038 | IRAK-1-4 Inhibitor I 0.053 | ibrutinib -0.09 | [6] -0.041 | ralimetinib -0.025 | [7] -0.103 | [8] 0.051 | [9] -0.055 | [10] -0.114 | [11] -0.001 | [12] 0.027 | [13] -0.065

STMN4 isoform 2 (UniProt Q9H169)
inactive: erlotinib -0.077 | [14] 0.003 | [1] -0.094 | [15] -0.041 | [2] 0.013 | [3] -0.058 | [16] 0.087 | [4] 0.029 | [5] -0.065 | IRAK-1-4 Inhibitor I -0.062 | ibrutinib 0.048 | [6] -0.163 | ralimetinib 0.009 | [7] 0.027 | [8] -0.064 | [9] -0.091 | [10] 0.066 | [11] -0.072 | [12] -0.053 | [13] -0.065

SYNCRIP isoform 3 (UniProt O60506)
inactive: erlotinib -0.027 | [14] 0.155 | [1] -0.143 | [15] 0.034 | [2] -0.018 | [3] -0.02 | [16] -0.03 | [4] -0.018 | [5] 0.01 | IRAK-1-4 Inhibitor I -0.117 | ibrutinib -0.015 | [6] -0.16 | ralimetinib 0.008 | [7] -0.039 | [8] 0.195 | [9] 0.002 | [11] 0.058 | [12] 0.119 | [13] 0.004

Reference: the supplement of paper PMC10849652
